Article PMC7414866, “The Rnf complex is a Na^+ coupled respiratory enzyme in a fermenting bacterium, Thermotoga maritima” (Communications Biology, 2020)
No constants are given. Whether binding was seen depends on the method and setting. Some results given as binding are weak or reduced against the parent protein; the word gives no strength. Each block holds one binder with its values, some of them ahead of it.

Legend:
[1] = target: T1, F1FO-ATP synthase subunit alpha of Thermotoga maritima (Thermotoga maritima (endogenous in T. maritima DSM3109)) (UniProt Q9X1U7); experiment: native gel or EMSA; 20 ug of the preparation with Rnf and ATP synthase on native PAGE; bands found by in-gel NADH:MTT-oxidoreductase or ATPase activity, excised, separated by SDS-PAGE (silver stain); subunits identified by western blot or LC/MS/MS and MALDI-TOF
T1 sequence: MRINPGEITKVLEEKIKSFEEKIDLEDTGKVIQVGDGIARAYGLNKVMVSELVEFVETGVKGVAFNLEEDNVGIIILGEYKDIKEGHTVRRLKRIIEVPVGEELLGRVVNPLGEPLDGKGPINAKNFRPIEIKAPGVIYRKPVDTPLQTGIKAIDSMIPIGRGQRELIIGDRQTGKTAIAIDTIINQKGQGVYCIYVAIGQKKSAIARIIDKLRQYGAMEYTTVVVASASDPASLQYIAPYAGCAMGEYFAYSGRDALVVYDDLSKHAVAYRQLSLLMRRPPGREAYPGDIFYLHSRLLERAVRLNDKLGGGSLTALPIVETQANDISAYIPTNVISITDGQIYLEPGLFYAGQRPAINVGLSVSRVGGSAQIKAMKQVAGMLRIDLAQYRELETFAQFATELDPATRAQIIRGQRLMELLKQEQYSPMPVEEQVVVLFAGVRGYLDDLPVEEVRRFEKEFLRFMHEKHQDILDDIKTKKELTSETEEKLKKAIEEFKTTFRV

[2] = target: T2, RnfC of Thermotoga maritima (Thermotoga maritima (endogenous in T. maritima DSM3109)) (UniProt Q9WY86); experiment: as above
T2 sequence: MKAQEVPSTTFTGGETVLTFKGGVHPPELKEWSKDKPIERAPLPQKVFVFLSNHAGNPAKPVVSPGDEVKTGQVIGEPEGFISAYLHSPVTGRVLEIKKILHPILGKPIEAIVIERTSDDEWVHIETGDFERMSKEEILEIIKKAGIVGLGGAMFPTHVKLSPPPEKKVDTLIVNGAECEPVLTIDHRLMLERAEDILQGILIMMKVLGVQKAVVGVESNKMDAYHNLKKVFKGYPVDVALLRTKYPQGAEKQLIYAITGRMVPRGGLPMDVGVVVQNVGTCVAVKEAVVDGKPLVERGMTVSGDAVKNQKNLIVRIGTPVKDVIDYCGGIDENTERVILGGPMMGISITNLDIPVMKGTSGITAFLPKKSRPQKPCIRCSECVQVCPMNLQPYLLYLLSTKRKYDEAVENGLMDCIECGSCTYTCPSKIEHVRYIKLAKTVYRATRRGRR

[3] = target: T2, RnfC of Thermotoga maritima (Thermotoga maritima (endogenous in T. maritima DSM3109)); experiment: co-purification (PEG precipitation, sucrose gradient, anion exchange, hydroxyapatite, gel filtration); DDM solubilisate, PEG6000 7% then 12%, sucrose gradient 20-50%, Q-sepharose, hydroxyapatite, Sephacryl S300; subunits confirmed by MALDI-TOF and SDS-PAGE; no ATPase activity in the preparation

B1: F1FO-ATP synthase subunit delta of Thermotoga maritima (protein, UniProt Q9X1U8 1-183)
chain: MRFSAVAGRYARALLNVAIEKEKEEEYLRFLDLVCQIYESSRELFDNPILKPEKKISLIKEIMKSFGQEMDEFQERFLTLVFERKRQKLLRNIRDLFEYEKILSEQKVPANLSIAHSPEDEELSLLRKFVRKYALKDPVFDISIDESLIAGALVEFEGFRLDTTVQGRLKRIAREALKRGEMS
binding [1]: binds

B3: F1FO-ATP synthase subunit b of Thermotoga maritima (protein, UniProt Q9X1U9 1-164)
chain: MGFLEINWTSAAMLMLFVLMVYFLNKFLYTPFIEMAEKRRKKVEEDLKSAEQLKEEAEKMRSEAERFLSEARQRADEIVESARKEAEAIVEEAREKAKKEAQNIVESAKTQIEVEYKKALEQVQERAAELSVILATKLLQKVFQDERARREYLVKILKEEIEKS
binding [1]: binds

B5: F1FO-ATP synthase subunit epsilon of Thermotoga maritima (protein, UniProt Q9X1U5 1-108)
chain: MKVKIVTPYGIVYDRESDFISFRTVEGSMGILPRRAPIVTQLSVCDVKIKSGDDEYHLKVAGGFLLCDGKDVIIITEEAGREEDISPDRFMEARERVERVRRFFQSSL
binding [1]: binds

B6: F1FO-ATP synthase subunit c of Thermotoga maritima (protein, UniProt Q9X1V0 1-85)
chain: MENLGDLAQGLALLGKYLGAGLCMGIGAIGPGIGEGNIGAHAMDAMARQPEMVGTITTRMLLADAVAETTGIYSLLIAFMILLVV
binding [1]: binds

More lines, now with the values ahead:

binding [2]: binds
binding [3]: binds
B2: RnfD of Thermotoga maritima (protein, UniProt Q9WY87 1-318)
chain: MKLISAYAPHLREEDDVRKIMLDVLIALSPAVIGAAYFFGWYALFLCIAGAVIGELFDIFVMRYLRGVKDFVPDGSGAVTGLLLAMNVSTRLPFWAFLLGLVFALGIGKHVFGGLGQNIFNPALVGRAFLLISFPTYMTTWVVPGAGFWKSPADVVTAATPLALFKEHGVFTPYWDLFIGKVGGSLGETSALLLIIGFIYLLLRKRVKIFIPVSYIGTVLVFSSIAYLMNPRYGDPLFHLLSGGLMLGALFMATDMVTSPITAKGQVIFGIGCGVLTMAIRLFGAYPEGVSFSILFMNALVPLIDRYTRPRIFGEVKK
modifications: covalently bound flavin

binding [1]: binds
B4: F1FO-ATP synthase subunit gamma of Thermotoga maritima (protein, UniProt Q9X1U6 1-273)
chain: MLQIKRKINATQSLMKITRAMEMVARAKVRKIESEYQKFKPFYDEVKRLWALVPAESLDPIFFEEGNRDLIVVITSDMGLCGSFNSEILREAERVISESRDPHLILVGLKAINHFKDGKVLKMYDRFYEIPDFRNGSTIVEDILNFLDGKPARVRVIFSRFKNVLIQRPEVHELLPIKKEEKKREDFEYEPRLEQIAPLIFHYYLSATLMELMFQTKIGEYYARQNAMKNATDNAQEVIRELTLAYNKARQASITQELIEIVTGAEALKEIEK
